For five molecules, binding results are on record in publication doi:10.1101/2020.11.05.370320.

Chains of the proteins cited; added tags and fusions are not shown.
UniProt Q9P209: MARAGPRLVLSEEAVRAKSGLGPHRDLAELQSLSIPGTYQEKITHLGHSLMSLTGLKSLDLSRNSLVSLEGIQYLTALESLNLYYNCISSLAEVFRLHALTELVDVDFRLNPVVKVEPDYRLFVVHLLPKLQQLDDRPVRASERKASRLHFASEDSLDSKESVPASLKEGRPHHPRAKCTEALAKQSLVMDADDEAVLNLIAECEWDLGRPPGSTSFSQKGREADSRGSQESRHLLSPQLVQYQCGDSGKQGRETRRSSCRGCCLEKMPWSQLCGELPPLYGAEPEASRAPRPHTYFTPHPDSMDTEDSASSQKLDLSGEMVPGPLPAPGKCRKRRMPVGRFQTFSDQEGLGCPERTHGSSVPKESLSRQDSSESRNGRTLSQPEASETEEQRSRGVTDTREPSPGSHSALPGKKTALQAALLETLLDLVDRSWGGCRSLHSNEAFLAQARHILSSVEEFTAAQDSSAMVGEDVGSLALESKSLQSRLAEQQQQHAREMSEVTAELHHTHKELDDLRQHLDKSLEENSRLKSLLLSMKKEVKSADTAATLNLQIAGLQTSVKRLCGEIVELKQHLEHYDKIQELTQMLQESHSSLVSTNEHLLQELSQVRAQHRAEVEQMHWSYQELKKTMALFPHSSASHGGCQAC

For test [1], the target named is Flag-BirA*-AURKA (Aurora kinase A) (human) (UniProt O14965). Description: proximity labelling.
Test [2] concerns the target T1, V5-BirA*-AURKA (Aurora kinase A) (human), O14965.
T1 chain: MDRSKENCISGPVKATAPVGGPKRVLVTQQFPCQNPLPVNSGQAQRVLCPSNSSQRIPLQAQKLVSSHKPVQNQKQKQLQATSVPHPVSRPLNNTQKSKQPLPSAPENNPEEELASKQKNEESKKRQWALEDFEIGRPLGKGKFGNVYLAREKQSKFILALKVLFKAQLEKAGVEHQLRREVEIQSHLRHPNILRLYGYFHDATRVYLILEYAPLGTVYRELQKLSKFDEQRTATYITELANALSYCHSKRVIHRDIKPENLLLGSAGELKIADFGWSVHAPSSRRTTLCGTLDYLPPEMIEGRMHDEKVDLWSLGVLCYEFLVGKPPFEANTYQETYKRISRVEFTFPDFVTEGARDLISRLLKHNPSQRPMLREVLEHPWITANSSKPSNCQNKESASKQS
Description: proximity labelling. Conditions: remark: other sources report otherwise.

Results are given in words; binding and its absence hold for the method and conditions named. In cells and extracts the contact can be indirect. A yes stands for co-enrichment or nearness to the bait. Other partners may have been found. For some assays here: No binding means not detected with the bait. For some assays here: Where a sequence is shown, tags or fusion partners need not be part of it.

As to PCM1 (from UniProt Q15154-1 1-2024), the binding entry in test [1] is “binds”.

As to CEP72 (from UniProt Q9P209 1-647), in test [1], the binding entry is on record as “binds”.

B1: CP110, O43303 1-1012 (protein)
chain: MEEYEKFCEKSLARIQEASLSTESFLPAQSESISLIRFHGVAILSPLLNIEKRKEMQQEKQKALDVEARKQVNRKKALLTRVQEILDNVQVRKAPNASDFDQWEMETVYSNSEVRNLNVPATFPNSFPSHTEHSTAAKLDKIAGILPLDNEDQCKTDGIDLARDSEGFNSPKQCDSSNISHVENEAFPKTSSATPQETLISDGPFSVNEQQDLPLLAEVIPDPYVMSLQNLMKKSKEYIEREQSRRSLRGSINRIVNESHLDKEHDAVEVADCVKEKGQLTGKHCVSVIPDKPSLNKSNVLLQGASTQASSMSMPVLASFSKVDIPIRTGHPTVLESNSDFKVIPTFVTENNVIKSLTGSYAKLPSPEPSMSPKMHRRRSRTSSACHILINNPINACELSPKGKEQAMDLIIQDTDENTNVPEIMPKLPTDLAGVCSSKVYVGKNTSEVKEDVVLGKSNQVCQSSGNHLENKVTHGLVTVEGQLTSDERGAHIMNSTCAAMPKLHEPYASSQCIASPNFGTVSGLKPASMLEKNCSLQTELNKSYDVKNPSPLLMQNQNTRQQMDTPMVSCGNEQFLDNSFEKVKRRLDLDIDGLQKENCPYVITSGITEQERQHLPEKRYPKGSGFVNKNKMLGTSSKESEELLKSKMLAFEEMRKRLEEQHAQQLSLLIAEQEREQERLQKEIEEQEKMLKEKKAMTAEASELDINNAVELEWRKISDSSLLETMLSQADSLHTSNSNSSGFTNSAMQYSFVSANEAPFYLWGSSTSGLTKLSVTRPFGRAKTRWSQVFSLEIQAKFNKITAVAKGFLTRRLMQTDKLKQLRQTVKDTMEFIRSFQSEAPLKRGIVSAQDASLQERVLAQLRAALYGIHDIFFVMDAAERMSILHHDREVRKEKMLRQMDKMKSPRVALSAATQKSLDRKKYMKAAEMGMPNKKFLVKQNPSETRVLQPNQGQNAPVHRLLSRQGTPKTSVKGVVQNRQKPSQSRVPNRVPVSGVYAGKIQRKRPNVATI
Take B1: in test [2], the binding result was “binds”.

B2: CEP63 (protein, UniProt Q96MT8 1-703)
chain: MEALLEGIQNRGHGGGFLTSCEAELQELMKQIDIMVAHKKSEWEGRTHALETCLKIREQELKSLRSQLDVTHKEVGMLHQQVEEHEKIKQEMTMEYKQELKKLHEELCILKRSYEKLQKKQMREFRGNTKNHREDRSEIERLTAKIEEFRQKSLDWEKQRLIYQQQVSSLEAQRKALAEQSEIIQAQLVNRKQKLESVELSSQSEIQHLSSKLERANDTICANELEIERLTMRVNDLVGTSMTVLQEQQQKEEKLRESEKLLEALQEEKRELKAALQSQENLIHEARIQKEKLQEKVKATNTQHAVEAIRPREESLAEKKYTSQGQGDLDSVLSQLNFTHTSEDLLQAEVTCLEGSLESVSATCKQLSQELMEKYEELKRMEAHNNEYKAEIKKLKEQILQGEQSYSSALEGMKMEISHLTQELHQRDITIASTKGSSSDMEKRLRAEMQKAEDKAVEHKEILDQLESLKLENRHLSEMVMKLELGLHEAKEISLADLQENYIEALNKLVSENQQLQKDLMNTKSQLEISTQMCKKQNDRIFKPTHSRTTEFKNTEFKPTHGQHRHDGIKTEHYKTDLHSPRGQASDSINPMSRVLSPLSPQISPCSSTRSLTSYSLCKTHSLPSALDTNEANFSDTMSESMNDQEEFISSCSLPVSPLGSIATRFLEEEELRSHHILERLDAHIEELKRESEKTVRQFTALK
Consider B2, for which, in test [1], the binding result was “no binding”.

B3: CEP131 (protein, UniProt Q9UPN4 1-1083)
chain: MKGTRAIGSVPERSPAGVDLSLTGLPPPVSRRPGSAATTKPIVRSVSVVTGSEQKRKVLEATGPGGSQAINNLRRSNSTTQVSQPRSGSPRPTEPTDFLMLFEGSPSGKKRPASLSTAPSEKGATWNVLDDQPRGFTLPSNARSSSALDSPAGPRRKECTVALAPNFTANNRSNKGAVGNCVTTMVHNRYTPSERAPPLKSSNQTAPSLNNIIKAATCEGSESSGFGKLPKNVSSATHSARNNTGGSTGLPRRKEVTEEEAERFIHQVNQATVTIQRWYRHQVQRRGAGAARLEHLLQAKREEQRQRSGEGTLLDLHQQKEAARRKAREEKARQARRAAIQELQQKRALRAQKASTAERGPPENPRETRVPGMRQPAQELSPTPGGTAHQALKANNTGGGLPAAGPGDRCLPTSDSSPEPQQPPEDRTQDVLAQDAAGDNLEMMAPSRGSAKSRGPLEELLHTLQLLEKEPDVLPRPRTHHRGRYAWASEVTTEDDASSLTADNLEKFGKLSAFPEPPEDGTLLSEAKLQSIMSFLDEMEKSGQDQLDSQQEGWVPEAGPGPLELGSEVSTSVMRLKLEVEEKKQAMLLLQRALAQQRDLTARRVKETEKALSRQLQRQREHYEATIQRHLAFIDQLIEDKKVLSEKCEAVVAELKQEDQRCTERVAQAQAQHELEIKKLKELMSATEKARREKWISEKTKKIKEVTVRGLEPEIQKLIARHKQEVRRLKSLHEAELLQSDERASQRCLRQAEELREQLEREKEALGQQERERARQRFQQHLEQEQWALQQQRQRLYSEVAEERERLGQQAARQRAELEELRQQLEESSSALTRALRAEFEKGREEQERRHQMELNTLKQQLELERQAWEAGRTRKEEAWLLNREQELREEIRKGRDKEIELVIHRLEADMALAKEESEKAAESRIKRLRDKYEAELSELEQSERKLQERCSELKGQLGEAEGENLRLQGLVRQKERALEDAQAVNEQLSSERSNLAQVIRQEFEDRLAASEEETRQAKAELATLQARQQLELEEVHRRVKTALARKEEAVSSLRTQHEAAVKRADHLEELLEQHRRPTPSTK
Regarding B3, in test [1], the binding entry is “binds”.
